The list shows a part of the results. The main result of the screen is listed elsewhere. These columns were measured beside it and carry no call. Most of these compounds were active or inconclusive in the main read-out, so they are no random draw. Words in brackets tell the shape of the fitted curve; partial curves, single points and poor fits give uncertain potencies.
Test: qHTS Assay for Lipid Storage Modulators in Drosophila S3 Cells;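 on cell number change: cells counted by Cell Tracker Red CMTPX staining in the red channel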
Conditions: BODIPY lipid droplet fluorescence, 18-24 h; for cell number change: measured here: cell count max response, cells fed with added oleic acid
How it was run: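 Laser-scanning cytometry quantifies lipid droplet accumulation (500–530 nm total intensity; droplet/cell object ratio) in oleic acid-fed (400 uM added) Drosophila S3 cells treated with a concentration series. 20 uM Triacsin C defined 100% inhibition.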

[1] = measured here: cell number channel AC50, cells fed with added oleic acid
[2] = measured here: lipid fluorescence (Fed channel) AC50, cells fed with added oleic acid

Row | SMILES | AC50 [1] | AC50 [2] | cell number change [%]
1 | O=C(NCc1ccccc1)C1CCCN(S(=O)(=O)c2cccnc2)C1 (centres undefined) | 1160 nM [rising, partial curve] | 731 nM [rising, partial curve] | –
2 | O=S1(=O)CCO[C@H]2Cc3ccccc3[C@H]2N1Cc1ccc(F)cc1 | – | – | 18.3
3 | COC(=O)C1=NN(c2ccccc2)C2C(=O)N(c3ccccc3OC)C(=O)C12 (centres undefined) | 3260 nM [rising, full curve] | 6510 nM [falling, single point] | 47.1
4 | CSCCC(NC(=O)c1ccccc1)C(=O)NCCc1ccc2c(c1)OCCO2 (centres undefined) | 259 nM [falling, full curve, poor fit] | 291 nM [falling, partial curve, poor fit] | –
5 | NC(=O)c1cn(Cc2c(F)cccc2F)nn1 | – | 184 nM [rising, full curve, poor fit] | -4.1
6 | CC1CCN(C(=O)CCc2nnc(-c3ccccc3)o2)CC1 | – | 291 nM [falling, full curve, poor fit] | -1.8
7 | CC(/C=C/c1ccco1)=N/NC(=O)CNc1ccccc1C | – | 25900 nM [rising, single point] | 29.2
8 | CC(=O)c1cccc(NS(=O)(=O)c2c(C(=O)N3CCOCC3)c(C)n(C)c2C)c1 | – | 6510 nM [falling, single point] | -18.1
9 | CCCCCCOc1ccc(NC(=O)CC2C(=O)N(CC)C(=S)N2Cc2ccco2)cc1 (centres undefined) | – | 6510 nM [rising, single point] | 28.3
10 | COc1ccc(N2CCN(C(c3cccc(OC)c3OC)c3nnnn3C3CCCC3)CC2)cc1 (centres undefined) | 7310 nM [rising, partial curve, poor fit] | 1840 nM [falling, partial curve] | 36.2
11 | CCOC(=O)C1=C(CSc2nc(-c3ccncc3)ccc2C#N)OC(N)=C(C#N)C1c1cccnc1 (centres undefined) | – | 820 nM [rising, single point] | -10.7
12 | O=Cc1ccc(OCc2nnc(-c3ccccc3Br)o2)cc1 | – | 4.61 nM [falling, full curve, poor fit] | 10.5
13 | CCCN1CCC(=O)N(CCSc2ccccc2)CC1 | – | – | 15
14 | COc1ccc(-c2ccc(-c3noc(-c4ccc(OC)c(OC)c4)n3)c(OC)n2)cc1 | – | 651 nM [falling, full curve, poor fit] | 2.15
15 | Nc1nc(NCc2ccccc2)nc(-c2ccccc2)n1 | 5170 nM [rising, single point] | 5800 nM [rising, full curve] | 5.88
16 | COc1ccc(CC(=O)OC(C)CN2CCOCC2)cc1 (centres undefined) | – | 6510 nM [falling, single point] | 0.186
17 | COC(=O)c1ccc(N2C(=O)C3CC=CC(C)C3C2=O)cc1 (centres undefined) | – | 8200 nM [falling, partial curve] | -11.6
18 | COc1cccc(NC(=O)CCS(=O)(=O)c2cc3c(cc2Cl)NC(=O)CO3)c1 | – | 29100 nM [falling, single point] | -10.3

Row | SMILES | AC50 [1] | AC50 [2] | cell number change [%]
19 | Cc1ccc(C(=O)NCc2ccccn2)cc1Cl | – | 4110 nM [rising, single point] | 8.84
20 | C=C1c2cc(C)ccc2NC(=O)N1c1ccccc1 | 326 nM [falling, single point] | – | 1.12
21 | O=C(C(Cc1ccccc1)N1C(=O)C2C3C=CC(C3)C2C1=O)N1CCCCC1 (centres undefined) | – | 5.8 nM [falling, full curve, poor fit] | -12.4
22 | CCCS(=O)(=O)N1CCCC(c2nc(-c3ccc(OC)cc3)no2)C1 (centres undefined) | – | 6510 nM [rising, single point] | –
23 | O=C(CN1C(=O)NC2(CCc3ccccc3C2)C1=O)NCc1ccco1 (centres undefined) | 130 nM [rising, full curve, poor fit] | 116 nM [rising, full curve, poor fit] | -5.66
24 | NS(=O)(=O)c1ccc(NC(=O)C2Cc3ccccc3C(=O)O2)cc1 (centres undefined) | – | – | 19.4
25 | O=C(NCc1nnc(SCC(=O)N2CCc3ccccc32)o1)c1ccco1 | 3660 nM [rising, full curve, poor fit] | 2590 nM [rising, full curve, poor fit] | 23.9
26 | O=C(CNc1cccc2ccccc12)N/N=C/C=C/c1ccco1 | – | 6510 nM [rising, full curve, poor fit] | 21.3
27 | Cc1ccc(Sc2ccc(CN3CCCCC3)cc2[N+](=O)[O-])cc1 | – | 25900 nM [falling, partial curve, poor fit] | -12.6
28 | CCCCn1c(N)c(N(CC(C)C)C(=O)c2ccc([N+](=O)[O-])o2)c(=O)[nH]c1=O | – | 82 nM [falling, full curve, poor fit] | 15.8
29 | CCC(C)(C)NC(=O)C(c1ccc(OC)cc1)N(C(=O)CCC(=O)Nc1cc(C)on1)c1ccc(F)cc1 (centres undefined) | – | – | 5.83
30 | O=C(NCCc1ccccc1)C(=O)NCCC1CCCCN1S(=O)(=O)c1ccccc1 (centres undefined) | – | 651 nM [rising, partial curve, poor fit] | 5.94
31 | CCOC(=O)C1=C(C)N(C)C(=O)NC1c1ccccc1OC (centres undefined) | 82 nM [falling, full curve, poor fit] | – | -5.4
32 | CCOc1ccc(N2C(=O)CC(NC3CCN(C(=O)c4cccc(Cl)c4)CC3)C2=O)cc1 (centres undefined) | – | – | -15
33 | Cc1ccc(C(=O)N[C@H](C(=O)OCC(=O)Nc2cccc(S(N)(=O)=O)c2)C(C)C)cc1 | 1640 nM [falling, partial curve] | 2060 nM [falling, partial curve, poor fit] | 11.6
34 | COc1cccc(C(=O)C2CN(c3ccccc3)CC2c2ccc(Cl)cc2)c1 (centres undefined) | – | 2060 nM [rising, partial curve] | -14.3
35 | O=C1CCC(C(=O)O)(c2ccccc2)C1 (centres undefined) | 29.1 nM [rising, full curve, poor fit] | 1840 nM [rising, single point] | 2.49
36 | COc1ccc(NC(=O)COc2ccccc2C#N)c(S(=O)(=O)N2CCCCC2)c1 | 29100 nM [falling, single point] | 29100 nM [falling, partial curve] | -52

Reprinted at random: two entries already listed.
Row | SMILES | AC50 [1] | AC50 [2] | cell number change [%]
34 | COc1cccc(C(=O)C2CN(c3ccccc3)CC2c2ccc(Cl)cc2)c1 (centres undefined) | – | 2060 nM [rising, partial curve] | -14.3
27 | Cc1ccc(Sc2ccc(CN3CCCCC3)cc2[N+](=O)[O-])cc1 | – | 25900 nM [falling, partial curve, poor fit] | -12.6

From PubChem BioAssay AID2685 (National Center for Advancing Translational Sciences (NCATS), 2010)
